Measurements: US10100010B1, “4-methoxy pyrrole derivatives or salts thereof and pharmaceutical composition comprising the same” (Daewoong Pharmaceutical Co., Ltd., priority 2015, dated 2018)
Structures were worked out from names or drawings and are uncertain.

The chains behind the UniProt entries cited, without tags or fusion partners.
UniProt P11229, whole entry: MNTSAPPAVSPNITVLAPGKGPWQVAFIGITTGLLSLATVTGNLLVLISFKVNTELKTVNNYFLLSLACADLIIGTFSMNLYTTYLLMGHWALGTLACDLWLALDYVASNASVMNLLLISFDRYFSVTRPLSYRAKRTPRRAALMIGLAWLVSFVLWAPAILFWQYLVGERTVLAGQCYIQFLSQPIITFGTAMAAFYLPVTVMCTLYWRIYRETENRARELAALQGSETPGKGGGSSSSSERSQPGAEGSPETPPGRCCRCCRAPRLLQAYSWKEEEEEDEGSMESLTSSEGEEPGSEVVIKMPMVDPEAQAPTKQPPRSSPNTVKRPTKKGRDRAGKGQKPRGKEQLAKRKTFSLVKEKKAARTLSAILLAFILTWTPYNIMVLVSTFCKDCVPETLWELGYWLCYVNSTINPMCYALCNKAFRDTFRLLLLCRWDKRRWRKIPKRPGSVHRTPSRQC
UniProt P08172, whole entry: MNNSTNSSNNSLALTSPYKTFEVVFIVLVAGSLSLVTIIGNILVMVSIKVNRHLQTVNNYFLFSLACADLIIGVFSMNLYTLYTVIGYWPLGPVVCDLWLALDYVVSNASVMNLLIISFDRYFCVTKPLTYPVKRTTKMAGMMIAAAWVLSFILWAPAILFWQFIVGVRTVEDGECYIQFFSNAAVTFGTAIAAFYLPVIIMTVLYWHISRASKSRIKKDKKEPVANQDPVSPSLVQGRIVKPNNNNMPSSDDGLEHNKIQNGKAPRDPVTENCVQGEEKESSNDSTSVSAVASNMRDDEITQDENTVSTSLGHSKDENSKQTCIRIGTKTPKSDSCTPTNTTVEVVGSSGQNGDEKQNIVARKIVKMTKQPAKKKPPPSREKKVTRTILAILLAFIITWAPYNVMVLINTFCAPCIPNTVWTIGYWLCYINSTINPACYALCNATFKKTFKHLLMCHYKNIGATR
UniProt P28223, whole entry: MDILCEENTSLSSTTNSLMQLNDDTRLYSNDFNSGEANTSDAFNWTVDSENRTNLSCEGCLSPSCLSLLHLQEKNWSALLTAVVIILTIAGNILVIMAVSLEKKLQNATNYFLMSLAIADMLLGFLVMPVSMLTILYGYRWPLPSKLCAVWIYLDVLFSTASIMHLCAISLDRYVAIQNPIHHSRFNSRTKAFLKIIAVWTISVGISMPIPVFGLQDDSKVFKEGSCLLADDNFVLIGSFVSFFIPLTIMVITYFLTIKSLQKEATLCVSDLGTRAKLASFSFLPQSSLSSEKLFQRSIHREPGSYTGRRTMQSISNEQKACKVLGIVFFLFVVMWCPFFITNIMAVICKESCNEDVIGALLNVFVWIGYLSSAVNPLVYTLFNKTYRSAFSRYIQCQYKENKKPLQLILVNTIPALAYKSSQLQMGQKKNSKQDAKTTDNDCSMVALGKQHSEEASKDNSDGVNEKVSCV

Columns and labels:
Format in all cases: cell-based
Details in all cases: tested form: HCl
[1] = biological target: M1 (Homo sapiens, UniProt P11229); test: GPCR Calcium Flux assay (FLIPR tetra, Eurofins), M1
Method: (§1) In order to confirm whether the compounds prepared in the above Examples act as an agonist or antagonist against GPCR Target, Calcium Flux assay was performed in an assay plate in which the compounds prepared in the Examples, vehicle controls, and reference compounds were added, using a Fluorometric imaging plate reader (FLIPR tetra) equipment.
(§2) Calcium Flux assay was evaluated by entrusting the GPCR profiler assay in Safety panel assays with Eurofins. By using the Fluo-8AM calcium dye, excitation was measured at a wavelength in the range of 470 to 495 nm and Emission was measured at a wavelength in the range of 515-575 nm. GPCR Assay Buffer for Calcium Flux assay was prepared by adding 20 mM of HEPES and 2.5 mM of Probenecid to Hanks Balanced Salt Solution (HBSS) to have pH 7.4. The Compounds of Examples for evaluation of the GPCR were diluted with DMSO at a concentration of 10 mM to make a stock and then prepared by diluting in the GPCR Assay Buffer at the concentration equivalent to three times the final concentration. […] In order to evaluate the agonist and antagonist, % inhibition rate against GPCR activity before and after treatment of the compounds and the inhibitory activity of the compounds of the Examples were determined. […]

[2] = biological target: M2 (Homo sapiens, UniProt P08172); test: GPCR Calcium Flux assay (FLIPR tetra, Eurofins), M2
Method: as §1, §2

[3] = biological target: 5-HT2A (Homo sapiens, UniProt P28223); test: GPCR Calcium Flux assay (FLIPR tetra, Eurofins), 5-HT2A
Method: as §1, §2

CNCc1cn(S(=O)(=O)c2cccc(F)c2)c(-c2c(F)ccc(F)c2F)c1OC
IC50 ([1]; read-out: 50% inhibitory concentration (IC50) M1, 8 concentrations 10 to 0.0006 uM): 51 nM | inhibition rate (%) M1 ([1]; single concentration of 10 uM): 101.1% | IC50 ([2]; read-out: 50% inhibitory concentration (IC50) M2, 8 concentrations 10 to 0.0006 uM): 180 nM | inhibition rate (%) M2 ([2]; single concentration of 10 uM): 100.3% | IC50 ([3]; read-out: 50% inhibitory concentration (IC50) 5-HT2A, 8 concentrations 10 to 0.0006 uM): 57 nM | inhibition rate (%) 5-HT2A ([3]; single concentration of 10 uM): 99.1%
